This is one part of the list. Many values rest on one well or one pass, so single values are uncertain.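 Cells were imaged in 1,536-well plates, and nuclei stained with an antibody against cleaved PARP were counted against all DNA-stained nuclei to give the apoptosis fraction. Screening doses were chosen to leave most cells alive, and resting and induced cleaved-PARP levels differ strongly between cell lines.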

In the first assay the test system is LOXIMVI. Nature of the assay: cleaved PARP positive nuclei fraction relative to DMSO control; melanoma cells; higher = more apoptosis. Particulars: library dose: low library concentration; 72 h.
Regarding `CN(c1ncccc1CNc1nc(Nc2ccc3c(c2)CC(=O)N3)ncc1C(F)(F)F)S(C)(=O)=O` + CO[C@@H]1[C@H](N(C)C(=O)c2ccccc2)C[C@H]2O[C@]1(C)n1c3ccccc3c3c4c(c5c6ccccc6n2c5c31)C(=O)NC4 [Midostaurin] (first compound 0.08 µM, partner dose 0.08 µM), the “cleaved PARP positive nuclei fraction” value worked out at 550%.
Regarding `Cn1sc(=O)n(Cc2ccccc2)c1=O` + c1cc(-c2cnn3cc(-c4ccc(OCCN5CCCCC5)cc4)cnc23)ccn1 [Dorsomorphin] (first compound 0.4 µM, partner dose 0.4 µM), the “cleaved PARP positive nuclei fraction” value was 61.5%.
Regarding `CC(=O)O[C@@]12CO[C@@H]1C[C@H](O)[C@@]1(C)C(=O)[C@H](O)C3=C(C)[C@@H](OC(=O)[C@H](O)[C@@H](NC(=O)OC(C)(C)C)c4ccccc4)C[C@@](O)([C@@H](OC(=O)c4ccccc4)[C@H]21)C3(C)C` [Docetaxel] + N#Cc1c(O)c2c(-c3ccc(-c4ccccc4O)cc3)csc2[nH]c1=O [A769662] (first compound 0.0001 µM, partner dose 2 µM), the “cleaved PARP positive nuclei fraction” value came out at 51.3%.
As for `Cn1cnc2c(F)c(Nc3ccc(Br)cc3Cl)c(C(=O)NOCCO)cc21` [selumetinib] + OCCn1cc(-c2cnc3nnn(Cc4ccc5ncccc5c4)c3n2)cn1 [PF04217903] (first compound 0.015 µM, partner dose 1 µM), the “cleaved PARP positive nuclei fraction” value stood at 46.7%.
In the case of `Cn1cnc2c(F)c(Nc3ccc(Br)cc3Cl)c(C(=O)NOCCO)cc21` [selumetinib] + Oc1cc(-c2nc(-c3ccccc3)[nH]c2-c2ccncc2)ccc1Cl [L779450] (first compound 0.015 µM, partner dose 0.2 µM), the “cleaved PARP positive nuclei fraction” value came to 91%.
On to `Cn1sc(=O)n(Cc2ccccc2)c1=O` + CCCCCCCCCCCC1=C(O)C(=O)C=C(O)C1=O [Embelin] (first compound 0.4 µM, partner dose 1.2 µM), for which the “cleaved PARP positive nuclei fraction” value was 156%.
Regarding `CCN(CC)CCNC(=O)c1c(C)[nH]c(/C=C2\C(=O)Nc3ccc(F)cc32)c1C` [sunitinib] + CCc1ccc(CCOc2ccc(CC3SC(=O)NC3=O)cc2)nc1 [pioglitazone] (first compound 0.4 µM, partner dose 2 µM), the “cleaved PARP positive nuclei fraction” value is 35.7%.

Another assay deals with MEL-HO. The description is as above. To be noted: library dose: low library concentration; 72 h.
As to `C[C@]1(O)C[C@@H](c2nc(-c3ccc4ccc(-c5ccccc5)nc4c3)c3c(N)nccn32)C1` + C[C@@H]1CCN(C(=O)CC#N)C[C@@H]1N(C)c1ncnc2[nH]ccc12 [CP690550] (first compound 0.4 µM, partner dose 1 µM), the “cleaved PARP positive nuclei fraction” value is 126%.
With `Cn1sc(=O)n(Cc2ccccc2)c1=O` + NCC(=O)Nc1ccc(-n2nc(C(F)(F)F)cc2-c2ccc3c(ccc4ccccc43)c2)cc1 [OSU03012] (first compound 0.4 µM, partner dose 1 µM), the “cleaved PARP positive nuclei fraction” value was found to be 101%.
Consider `CCCCCCCCc1ccc(CCC(N)(CO)CO)cc1` [fingolimod] + O=C(CCCCCCC(=O)Nc1ccccc1)NO [vorinostat] (first compound 2 µM, partner dose 0.08 µM), for which the “cleaved PARP positive nuclei fraction” value came to 187%.
Consider `CCCCCCCCc1ccc(CCC(N)(CO)CO)cc1` [fingolimod] + Cc1ccc(NC(=O)c2cccc(N(C)C)c2)cc1NC(=O)c1ccc(O)cc1 [ZM336372] (first compound 2 µM, partner dose 2 µM), for which the “cleaved PARP positive nuclei fraction” value came to 191%.
For `CCN(CC)CCNC(=O)c1c(C)[nH]c(/C=C2\C(=O)Nc3ccc(F)cc32)c1C` [sunitinib] + CC1(C)NC(=O)N(c2ccc([N+](=O)[O-])c(C(F)(F)F)c2)C1=O [nilutamide] (first compound 0.4 µM, partner dose 1 µM), the “cleaved PARP positive nuclei fraction” value was 65.2%.
Consider `CN(c1ncccc1CNc1nc(Nc2ccc3c(c2)CC(=O)N3)ncc1C(F)(F)F)S(C)(=O)=O` + COc1cc2c(Oc3ccc4[nH]c(C)cc4c3F)ncnc2cc1OCCCN1CCCC1 [cediranib] (first compound 0.08 µM, partner dose 0.4 µM), for which the “cleaved PARP positive nuclei fraction” value was 55.7%.
Take `CC1(C)CCC(c2ccc(Cl)cc2)=C(CN2CCN(c3ccc(C(=O)NS(=O)(=O)c4ccc(N[C@H](CCN5CCOCC5)CSc5ccccc5)c(S(=O)(=O)C(F)(F)F)c4)cc3)CC2)C1` + O=C(Nc1cccc(Cl)c1)Nc1ncc(CCNc2ncnc3ccsc23)s1 [SNS314] (first compound 0.4 µM, partner dose 0.0008 µM): the “cleaved PARP positive nuclei fraction” value stood at 78.3%.
As to `NC1(c2ccc(-c3nc4ccn5c(=O)[nH]nc5c4cc3-c3ccccc3)cc2)CCC1` + Cc1cc(N2CCOCC2)cc2[nH]c(-c3c(NC[C@@H](O)c4cccc(Cl)c4)cc[nH]c3=O)nc12 [BMS536924] (first compound 0.4 µM, partner dose 0.2 µM), the “cleaved PARP positive nuclei fraction” value came out at 180%.
On to `CS(=O)(=O)c1ccc(C(=O)Nc2ccc(Cl)c(-c3ccccn3)c2)c(Cl)c1` [vismodegib] + CN(NC(=O)CC(=O)NN(C)C(=S)c1ccccc1)C(=S)c1ccccc1 [STA4783] (first compound 1 µM, partner dose 0.006 µM), for which the “cleaved PARP positive nuclei fraction” value stood at 132%.
As to `Cn1cnc2c(F)c(Nc3ccc(Br)cc3Cl)c(C(=O)NOCCO)cc21` [selumetinib] + C=CCNC1=C2C[C@@H](C)C[C@H](OC)[C@H](O)[C@@H](C)/C=C(\C)[C@H](OC(N)=O)[C@@H](OC)/C=C\C=C(/C)C(=O)NC(=CC1=O)C2=O [Tanespimycin] (first compound 0.015 µM, partner dose 0.002 µM), the “cleaved PARP positive nuclei fraction” value was determined as 58%.
For `CC1(C)CCC(c2ccc(Cl)cc2)=C(CN2CCN(c3ccc(C(=O)NS(=O)(=O)c4ccc(N[C@H](CCN5CCOCC5)CSc5ccccc5)c(S(=O)(=O)C(F)(F)F)c4)cc3)CC2)C1` + Nc1nc(F)nc2c1ncn2[C@@H]1O[C@H](CO)[C@@H](O)[C@@H]1O [fludarabine] (first compound 0.4 µM, partner dose 0.2 µM), the “cleaved PARP positive nuclei fraction” value was 155%.
Still for that read-out and setting: to `Cn1sc(=O)n(Cc2ccccc2)c1=O` + C=CCNC1=C2C[C@@H](C)C[C@H](OC)[C@H](O)[C@@H](C)/C=C(\C)[C@H](OC(N)=O)[C@@H](OC)/C=C\C=C(/C)C(=O)NC(=CC1=O)C2=O [Tanespimycin] (first compound 0.4 µM, partner dose 0.002 µM) belongs 79%.
`CCCCCCCCc1ccc(CCC(N)(CO)CO)cc1` [fingolimod] + CC(C)(C)c1cnc(CSc2cnc(NC(=O)C3CCNCC3)s2)o1 [SNS-032] (first compound 2 µM, partner dose 0.01 µM): the “cleaved PARP positive nuclei fraction” value was determined as 68.1%.
Take `NC(=O)c1ccc(N(C(N)=O)c2c(F)cccc2F)nc1-c1ccc(F)cc1F` + COCC[n+]1c2c(n(Cc3cnccn3)c1C)C(=O)c1ccccc1C2=O [YM155] (first compound 0.4 µM, partner dose 0.0004 µM): the “cleaved PARP positive nuclei fraction” value came to 61.9%.
With `NC1(c2ccc(-c3nc4ccn5c(=O)[nH]nc5c4cc3-c3ccccc3)cc2)CCC1` + CO[C@@H]1[C@H](N(C)C(=O)c2ccccc2)C[C@H]2O[C@]1(C)n1c3ccccc3c3c4c(c5c6ccccc6n2c5c31)C(=O)NC4 [Midostaurin] (first compound 0.4 µM, partner dose 0.08 µM), the “cleaved PARP positive nuclei fraction” value is 144%.
Still for that read-out and setting: the result for `CC1(C)CCC(c2ccc(Cl)cc2)=C(CN2CCN(c3ccc(C(=O)NS(=O)(=O)c4ccc(N[C@H](CCN5CCOCC5)CSc5ccccc5)c(S(=O)(=O)C(F)(F)F)c4)cc3)CC2)C1` + Cn1nnc2c(C(N)=O)ncn2c1=O [temozolomide] (first compound 0.4 µM, partner dose 2 µM) reads 85%; that for `CN(c1ncccc1CNc1nc(Nc2ccc3c(c2)CC(=O)N3)ncc1C(F)(F)F)S(C)(=O)=O` + CO[C@@H]1[C@H](N(C)C(=O)c2ccccc2)C[C@H]2O[C@]1(C)n1c3ccccc3c3c4c(c5c6ccccc6n2c5c31)C(=O)NC4 [Midostaurin] (first compound 0.08 µM, partner dose 0.08 µM), 48.4%; that for `Cn1cnc2c(F)c(Nc3ccc(Br)cc3Cl)c(C(=O)NOCCO)cc21` [selumetinib] + OCCn1cc(-c2cnc3nnn(Cc4ccc5ncccc5c4)c3n2)cn1 [PF04217903] (first compound 0.015 µM, partner dose 1 µM), 69%.

These data come from the supplement of paper PMC4604168 (melanoma cell lines).
